Reference: PubChem BioAssay (EPA / NIEHS)
Where “and” joins values, the source holds several entries; their conditions need not be identical. Identical values can stand only once. The shares of active, inactive and inconclusive entries below differ from those in the screen. For part of these data: Potencies beside an inconclusive call are fits to weak or partial responses and may not hold up. Where a structure was tested more than once in an assay, its records may differ in their call. Calls of active or inactive are those of the source. Rule for the calls: active = hit-call score of the fitted dose curve at least 0.9, where 1 is the maximum; inconclusive = response in the unintended direction; inactive = score below 0.9.

Amino acid sequences for entries named in this document (tags omitted). A change or cut given only in a name is not applied to a line headed by its entry.
UniProt P04150: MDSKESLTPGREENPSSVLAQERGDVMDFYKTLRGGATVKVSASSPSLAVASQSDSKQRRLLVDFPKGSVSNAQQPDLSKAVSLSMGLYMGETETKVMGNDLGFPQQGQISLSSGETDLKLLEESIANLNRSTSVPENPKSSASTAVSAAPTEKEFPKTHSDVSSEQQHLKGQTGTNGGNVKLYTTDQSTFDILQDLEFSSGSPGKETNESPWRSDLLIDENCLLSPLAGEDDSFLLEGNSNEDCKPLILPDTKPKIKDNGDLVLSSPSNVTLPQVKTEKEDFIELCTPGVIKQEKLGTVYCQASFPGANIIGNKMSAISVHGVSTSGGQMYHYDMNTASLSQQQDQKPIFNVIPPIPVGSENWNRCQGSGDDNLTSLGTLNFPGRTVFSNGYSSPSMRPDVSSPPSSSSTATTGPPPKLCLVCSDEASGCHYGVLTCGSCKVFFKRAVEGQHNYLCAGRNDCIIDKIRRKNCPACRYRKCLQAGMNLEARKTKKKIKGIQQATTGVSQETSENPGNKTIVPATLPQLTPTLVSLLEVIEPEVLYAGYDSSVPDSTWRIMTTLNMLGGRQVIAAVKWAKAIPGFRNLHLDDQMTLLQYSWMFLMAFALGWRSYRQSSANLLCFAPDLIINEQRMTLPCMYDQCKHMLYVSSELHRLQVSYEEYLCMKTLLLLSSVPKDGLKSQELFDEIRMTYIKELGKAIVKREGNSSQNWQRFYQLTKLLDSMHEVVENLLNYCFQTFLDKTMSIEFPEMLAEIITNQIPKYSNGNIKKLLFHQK
UniProt P37231: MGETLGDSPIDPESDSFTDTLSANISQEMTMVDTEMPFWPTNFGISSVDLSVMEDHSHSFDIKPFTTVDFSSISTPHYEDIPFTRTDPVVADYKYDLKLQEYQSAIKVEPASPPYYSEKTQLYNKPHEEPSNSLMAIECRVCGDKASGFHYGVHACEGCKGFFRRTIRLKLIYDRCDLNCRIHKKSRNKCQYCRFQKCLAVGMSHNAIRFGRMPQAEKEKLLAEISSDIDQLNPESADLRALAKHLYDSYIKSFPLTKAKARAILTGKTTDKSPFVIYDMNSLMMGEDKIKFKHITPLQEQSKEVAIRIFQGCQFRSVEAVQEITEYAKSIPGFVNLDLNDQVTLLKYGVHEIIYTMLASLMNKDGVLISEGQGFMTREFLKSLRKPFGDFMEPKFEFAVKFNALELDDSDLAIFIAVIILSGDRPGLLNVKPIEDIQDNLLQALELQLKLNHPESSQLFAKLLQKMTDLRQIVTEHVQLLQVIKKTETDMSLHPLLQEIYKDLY
UniProt Q01959, whole entry, looked up: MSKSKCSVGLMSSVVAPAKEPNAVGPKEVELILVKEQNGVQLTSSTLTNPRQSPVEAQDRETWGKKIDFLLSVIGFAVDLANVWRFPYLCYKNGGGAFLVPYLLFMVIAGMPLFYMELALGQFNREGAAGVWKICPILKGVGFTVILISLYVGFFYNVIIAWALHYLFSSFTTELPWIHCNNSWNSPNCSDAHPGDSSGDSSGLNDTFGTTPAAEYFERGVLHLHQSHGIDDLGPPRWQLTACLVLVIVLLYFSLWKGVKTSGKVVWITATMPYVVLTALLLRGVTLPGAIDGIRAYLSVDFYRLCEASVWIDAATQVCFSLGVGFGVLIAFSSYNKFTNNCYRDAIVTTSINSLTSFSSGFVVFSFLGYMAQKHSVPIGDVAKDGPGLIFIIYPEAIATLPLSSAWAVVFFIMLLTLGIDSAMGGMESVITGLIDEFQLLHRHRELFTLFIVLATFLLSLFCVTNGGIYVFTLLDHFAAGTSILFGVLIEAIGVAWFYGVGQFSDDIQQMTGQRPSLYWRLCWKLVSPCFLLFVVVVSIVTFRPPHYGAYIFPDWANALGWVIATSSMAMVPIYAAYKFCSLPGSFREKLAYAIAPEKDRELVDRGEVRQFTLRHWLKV
UniProt P23975, whole entry, looked up: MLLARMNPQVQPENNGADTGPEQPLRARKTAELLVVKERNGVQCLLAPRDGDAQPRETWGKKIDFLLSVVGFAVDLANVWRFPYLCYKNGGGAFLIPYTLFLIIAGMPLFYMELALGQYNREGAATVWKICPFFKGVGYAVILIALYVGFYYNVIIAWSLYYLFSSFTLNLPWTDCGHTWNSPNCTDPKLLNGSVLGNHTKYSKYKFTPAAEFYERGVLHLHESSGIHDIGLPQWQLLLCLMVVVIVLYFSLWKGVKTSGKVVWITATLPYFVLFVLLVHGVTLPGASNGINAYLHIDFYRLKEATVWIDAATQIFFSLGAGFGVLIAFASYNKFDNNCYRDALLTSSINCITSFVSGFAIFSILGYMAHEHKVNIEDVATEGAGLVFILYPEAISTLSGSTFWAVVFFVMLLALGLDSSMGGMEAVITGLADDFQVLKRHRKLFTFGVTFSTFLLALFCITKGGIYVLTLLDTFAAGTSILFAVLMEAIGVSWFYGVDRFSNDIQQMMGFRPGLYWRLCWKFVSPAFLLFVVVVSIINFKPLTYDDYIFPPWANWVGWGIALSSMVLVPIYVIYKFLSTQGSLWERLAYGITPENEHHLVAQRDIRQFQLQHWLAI
UniProt P10276, whole entry, looked up: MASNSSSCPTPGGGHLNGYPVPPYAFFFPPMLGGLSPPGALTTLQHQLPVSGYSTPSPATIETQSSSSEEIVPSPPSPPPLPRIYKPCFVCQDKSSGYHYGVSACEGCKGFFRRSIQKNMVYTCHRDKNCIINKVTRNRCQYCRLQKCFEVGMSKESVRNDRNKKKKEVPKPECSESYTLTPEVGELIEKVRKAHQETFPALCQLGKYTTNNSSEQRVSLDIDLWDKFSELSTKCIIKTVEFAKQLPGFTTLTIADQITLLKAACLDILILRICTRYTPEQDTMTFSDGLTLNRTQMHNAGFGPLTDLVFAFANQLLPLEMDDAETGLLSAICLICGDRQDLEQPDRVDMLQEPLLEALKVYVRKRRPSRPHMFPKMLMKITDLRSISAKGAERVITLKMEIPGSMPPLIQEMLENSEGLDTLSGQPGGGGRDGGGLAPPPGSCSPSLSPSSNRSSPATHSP
UniProt O75469: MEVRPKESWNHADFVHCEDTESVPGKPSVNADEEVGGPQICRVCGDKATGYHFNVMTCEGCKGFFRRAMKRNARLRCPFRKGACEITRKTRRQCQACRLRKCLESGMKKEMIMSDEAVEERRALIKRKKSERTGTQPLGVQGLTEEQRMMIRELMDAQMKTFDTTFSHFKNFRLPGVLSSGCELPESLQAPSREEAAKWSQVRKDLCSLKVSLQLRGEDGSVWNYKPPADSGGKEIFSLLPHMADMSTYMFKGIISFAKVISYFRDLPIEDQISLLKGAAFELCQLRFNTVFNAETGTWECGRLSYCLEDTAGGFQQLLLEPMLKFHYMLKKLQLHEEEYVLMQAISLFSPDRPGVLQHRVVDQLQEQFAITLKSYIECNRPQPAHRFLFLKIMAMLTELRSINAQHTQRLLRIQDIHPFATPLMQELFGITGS
UniProt P10827: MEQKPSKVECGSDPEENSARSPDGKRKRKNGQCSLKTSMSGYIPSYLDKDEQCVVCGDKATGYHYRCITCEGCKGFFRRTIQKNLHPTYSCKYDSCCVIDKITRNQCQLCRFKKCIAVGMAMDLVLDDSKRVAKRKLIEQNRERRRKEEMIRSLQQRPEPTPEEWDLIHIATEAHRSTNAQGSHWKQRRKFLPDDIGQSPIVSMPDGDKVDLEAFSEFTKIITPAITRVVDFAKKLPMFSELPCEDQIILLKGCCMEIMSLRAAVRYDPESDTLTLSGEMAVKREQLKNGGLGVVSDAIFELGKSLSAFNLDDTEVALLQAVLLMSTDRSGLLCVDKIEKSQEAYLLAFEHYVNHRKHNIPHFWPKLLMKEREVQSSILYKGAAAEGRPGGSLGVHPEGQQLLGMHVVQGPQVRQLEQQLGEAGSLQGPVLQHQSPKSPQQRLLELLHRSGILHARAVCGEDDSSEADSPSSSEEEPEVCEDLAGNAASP
UniProt P31645, whole entry, looked up: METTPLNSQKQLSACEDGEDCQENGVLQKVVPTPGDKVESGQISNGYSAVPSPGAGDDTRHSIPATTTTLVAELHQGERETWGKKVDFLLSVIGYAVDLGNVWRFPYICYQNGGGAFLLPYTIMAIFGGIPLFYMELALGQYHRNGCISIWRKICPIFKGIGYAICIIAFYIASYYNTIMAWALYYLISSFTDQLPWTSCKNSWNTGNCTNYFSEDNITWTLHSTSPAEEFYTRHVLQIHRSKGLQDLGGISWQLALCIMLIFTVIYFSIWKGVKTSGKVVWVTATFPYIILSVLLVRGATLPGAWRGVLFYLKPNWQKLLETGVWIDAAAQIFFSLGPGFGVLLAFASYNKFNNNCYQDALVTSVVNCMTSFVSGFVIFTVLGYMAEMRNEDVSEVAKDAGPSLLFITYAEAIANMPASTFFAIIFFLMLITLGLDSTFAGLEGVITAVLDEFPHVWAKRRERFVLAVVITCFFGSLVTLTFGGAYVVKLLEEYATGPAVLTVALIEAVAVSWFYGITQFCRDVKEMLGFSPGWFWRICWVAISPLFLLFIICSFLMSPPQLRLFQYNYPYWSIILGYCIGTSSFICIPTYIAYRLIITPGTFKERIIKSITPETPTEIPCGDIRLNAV
UniProt P15207: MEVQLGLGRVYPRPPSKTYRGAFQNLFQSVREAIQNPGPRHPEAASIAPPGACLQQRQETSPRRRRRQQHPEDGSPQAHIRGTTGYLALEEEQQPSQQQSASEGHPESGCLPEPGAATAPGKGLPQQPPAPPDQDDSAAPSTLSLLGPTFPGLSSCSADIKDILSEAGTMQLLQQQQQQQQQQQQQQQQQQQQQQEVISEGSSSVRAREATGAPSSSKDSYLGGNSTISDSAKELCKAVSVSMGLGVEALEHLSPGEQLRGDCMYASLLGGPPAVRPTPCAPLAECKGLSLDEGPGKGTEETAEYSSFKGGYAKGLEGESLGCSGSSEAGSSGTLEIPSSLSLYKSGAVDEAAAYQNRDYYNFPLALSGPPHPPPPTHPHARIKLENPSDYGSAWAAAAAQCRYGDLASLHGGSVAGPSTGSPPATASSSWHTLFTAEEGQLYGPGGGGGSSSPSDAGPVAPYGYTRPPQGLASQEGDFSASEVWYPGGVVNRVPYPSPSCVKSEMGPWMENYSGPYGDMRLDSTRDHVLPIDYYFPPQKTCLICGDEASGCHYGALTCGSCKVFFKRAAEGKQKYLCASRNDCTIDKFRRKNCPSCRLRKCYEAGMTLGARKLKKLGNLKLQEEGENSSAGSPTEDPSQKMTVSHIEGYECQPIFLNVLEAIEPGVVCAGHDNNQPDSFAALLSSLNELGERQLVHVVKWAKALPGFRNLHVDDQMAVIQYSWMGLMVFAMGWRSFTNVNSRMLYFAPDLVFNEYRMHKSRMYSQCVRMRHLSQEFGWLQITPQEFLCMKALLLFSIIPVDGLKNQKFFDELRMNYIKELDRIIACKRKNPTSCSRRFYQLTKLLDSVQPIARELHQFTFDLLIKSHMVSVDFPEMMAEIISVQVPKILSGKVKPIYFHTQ
UniProt Q99808: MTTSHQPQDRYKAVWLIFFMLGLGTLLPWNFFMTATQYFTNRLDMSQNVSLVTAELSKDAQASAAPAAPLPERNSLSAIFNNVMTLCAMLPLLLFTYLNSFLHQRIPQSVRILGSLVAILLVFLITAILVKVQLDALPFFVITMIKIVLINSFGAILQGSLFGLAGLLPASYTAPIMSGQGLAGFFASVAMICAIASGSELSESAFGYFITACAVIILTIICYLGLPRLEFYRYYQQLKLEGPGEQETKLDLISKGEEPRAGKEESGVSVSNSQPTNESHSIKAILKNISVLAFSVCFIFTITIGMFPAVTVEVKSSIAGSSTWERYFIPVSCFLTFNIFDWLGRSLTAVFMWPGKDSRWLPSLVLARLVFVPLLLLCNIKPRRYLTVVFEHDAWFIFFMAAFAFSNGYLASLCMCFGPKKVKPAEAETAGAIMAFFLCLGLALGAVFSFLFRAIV

Assays:
[1] = target: Glucocorticoid receptor (Homo sapiens) (UniProt P04150); assay: NVS_NR_hGR: NovaScreen (NVS) Nuclear Receptor Binding Assay for human Glucocorticoid Receptor (GR) (AID 2283363)
Method in brief: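 Single-readout cell-free binding: radioligand plus extracted receptor, 16-hour dosing, filter radiodetection; 25 uM duplicate primary, concentration series secondary.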

[2] = target: Peroxisome proliferator-activated receptor gamma (Homo sapiens) (UniProt P37231); assay: NVS_NR_hPPARg: NovaScreen (NVS) Nuclear Receptor Binding Assay for human Peroxisome Proliferator-activated Receptor gamma (PPARg) (AID 2283370)
Method in brief: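 Fluorescence polarization readout of ligand binding to extracted human PPARg, measured at 2 h. Duplicate single-point screen at 25 uM, then concentration-series retesting; activity defined as signal loss versus DMSO.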

[3] = target: human Dopamine Transporter (DAT), SLC6A3 (gene 6531) (UniProt Q01959); assay: NVS_TR_hDAT: NovaScreen (NVS) Transporter Assay for human Dopamine Transporter (DAT) (AID 2283374);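 note: activity means loss of bound radioligand signal relative to DMSO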
Method in brief: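 Extracted human SLC6A3 protein incubated 1 h with radioligand and test chemical; bound fraction separated on filters and counted. Single 25 uM duplicate screen preceded concentration-response follow-up; positive and negative controls on every plate.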

[4] = target: human Norepinephrine Transporter (NET), SLC6A2 (gene 6530) (UniProt P23975); assay: NVS_TR_hNET: NovaScreen (NVS) Transporter Assay for human Norepinephrine Transporter (NET) (AID 2283377);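 note: cell-free membrane protein extracted from CHO cells expressing human NET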;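 for AC50: displacement of radioligand from human NET seen as loss of scintillation signal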
Method in brief: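 In this cell-free binding screen, chemicals at 25 uM (duplicate) compete with a radioligand for CHO-derived human NET over 1 hour, with filter-based radiodetection.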

[5] = target: Retinoic acid receptor alpha (Homo sapiens) (UniProt P10276); assay: NVS_NR_hRARa_Agonist: NovaScreen (NVS) Nuclear Receptor Binding Assay for human Retinoic Acid Alpha Receptor Agonism (RAR) (AID 2283361)
Method in brief: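 Compounds screened at 25 uM, duplicate, then in concentration series if active. Detection: TR-FRET gain of signal versus DMSO after 2 h with cell-free extracted RARα.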

[6] = target: Nuclear receptor subfamily 1 group I member 2 (Homo sapiens) (UniProt O75469); assay: NVS_NR_hPXR: NovaScreen (NVS) Nuclear Receptor Binding Assay for human Pregnane X Receptor (PXR) (AID 2283365);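 note: a drop in FRET signal versus DMSO baseline means the compound binds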
Method in brief: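 Human PXR binding measured by TR-FRET in a cell-free format, 2 h exposure. Single-concentration duplicates at 25 uM preceded concentration-response retests of actives; endpoint fitted positively relative to DMSO, loss of signal indicating binding.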

[7] = target: human Thyroid Receptor Alpha (TRa), THRA (gene 7067) (UniProt P10827); assay: NVS_NR_hTRa_Antagonist: NovaScreen (NVS) Nuclear Receptor Binding Assay for human Thyroid Receptor Alpha Antagonism (TRa) (AID 2283362);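 note: activity is loss of signal relative to DMSO baseline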
Method in brief: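 Actives from a duplicate 25 uM single-point screen were retested in concentration series. The cell-free antagonist-format binding assay was read by AlphaLISA chemiluminescence at 1 h, scored as signal loss relative to DMSO.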

[8] = target: human Serotonin Transporter (SERT), SLC6A4 (gene 6532) (UniProt P31645); assay: NVS_TR_hSERT: NovaScreen (NVS) Transporter Assay for human Serotonin Transporter (SERT) (AID 2283372)
Method in brief: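 Human platelet membrane preparation; displacement of radioligand from serotonin transporter measured after 1 h by filtration and scintillation counting. Single 25 uM duplicate screen, then concentration series for actives, with DMSO as negative baseline.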

[9] = target: rat Androgen Receptor (AR), Ar (gene 24208) (UniProt P15207); assay: NVS_NR_rAR: NovaScreen (NVS) Nuclear Receptor Binding Assay for rat Androgen Receptor (AR) (AID 2283366)
Method in brief: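 Actives from a duplicate single-concentration (25 uM) primary run went on to concentration series. Displacement of radioligand was counted by filtration and scintillation, 18 h post-dose, using prostate extracts from testosterone-pretreated rats, with DMSO as baseline.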

[10] = target: human Adenosine Transporter (Adot), SLC29A1 (gene 2030) (UniProt Q99808); assay: NVS_TR_hAdoT: NovaScreen (NVS) Transporter Assay for human Adenosine Transporter (Adot) (AID 2283368)
Method in brief: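 Binding displacement on U937 extracted protein, read 1 h post-dose by filtration and scintillation counting. Primary duplicate test at 25 uM, then singleton concentration series with 50 uM top; DMSO baseline.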

[11] = system: guinea pig Dopamine Transporter (DAT), gene 100714898; assay: NVS_TR_gDAT: NovaScreen (NVS) Transporter Assay for guinea pig Dopamine Transporter (DAT) (AID 2283369);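 note: active compounds lower bound radioligand signal relative to DMSO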
Method in brief: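 Radioligand displacement on membranes from guinea pig striatum, 2 h exposure, bound label counted by filtration and scintillation. Tested at 25 uM in duplicate, then actives in concentration series to 50 uM; DMSO as negative control.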

[12] = system: rat Norepinephrine Transporter (NET), gene 83511; assay: NVS_TR_rNET: NovaScreen (NVS) Transporter Assay for rat Norepinephrine Transporter (NET) (AID 2283373)
Method in brief: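 Competitive radioligand displacement at the rat NET using forebrain membrane preparations, 1 h incubation, filter-based scintillation readout. Primary testing in duplicate at a single 25 uM concentration; confirmed actives retested across concentrations.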

Compound: CCCCCOC(=O)c1ccccc1C(=O)OCCCCC
- outcome [1]: inactive
- AC50 [2]: inconclusive: 9.84 µM
- AC50 [3]: inconclusive: 25 µM
- AC50 [4]: inconclusive: 25 µM

Compound: COC(=O)Nc1cccc(OC(=O)Nc2cccc(C)c2)c1
- AC50 [5]: inconclusive: 6.63 µM

Compound: Nc1ccc(N)cc1
- AC50 [6]: active: 25 µM

Compound: Oc1ccc(Cl)cc1Cc1ccccc1
- AC50 [7]: inconclusive: 25 µM
- AC50 [2]: inconclusive: 0.908 µM
- AC50 [8]: inconclusive: 5.93 µM

Compound: CN=C=S
- AC50 [2]: inconclusive: 4.96 µM

Compound: O=[N+]([O-])c1ccc(Cl)c([N+](=O)[O-])c1
- outcome [2]: inactive

Compound: CC(C)=CC1C(C(=O)OCc2cccc(Oc3ccccc3)c2)C1(C)C (configuration not stated)
- AC50 [6]: inconclusive: 0.108 µM

Compound: C[C@H]1[C@H](c2ccc(Cl)cc2)SC(=O)N1C(=O)NC1CCCCC1
- AC50 [9]: inconclusive: 46.7 µM
- AC50 [3]: inconclusive: 46.7 µM

Compound: CCCCN(CCCC)SN(C)C(=O)Oc1cccc2c1OC(C)(C)C2
- AC50 [10]: inconclusive: 25 µM

Compound: Cc1cc(-c2ccc(N)c(C)c2)ccc1N
- AC50 [2]: inconclusive: 25 µM

Compound: COP(=S)(OC)Oc1ccc(SC)c(C)c1
- AC50 [11]: inconclusive: 0.975 µM

Compound: CO/N=C(/C(=O)OC)c1ccccc1COc1ccccc1C
- AC50 [9]: inconclusive: 14.7 µM

Compound: COP(=S)(OC)Oc1ccc(Sc2ccc(OP(=S)(OC)OC)cc2)cc1
- AC50 [6]: inconclusive: 6.48 µM
- outcome [9]: inactive
- AC50 [2]: active: 0.13 µM

Compound: CCCCC(CC)COC(=O)c1c(Br)c(Br)c(Br)c(Br)c1C(=O)OCC(CC)CCCC (configuration not stated)
- AC50 [6]: inconclusive: 18.4 µM

Compound: O=S1OC[C@@H]2[C@H](CO1)[C@]1(Cl)C(Cl)=C(Cl)[C@@]2(Cl)C1(Cl)Cl (some centres not stated)
- AC50 [9]: inconclusive: 25 µM
- AC50 [2]: active: 14.9 µM

Compound: O=S1(=O)OCC2C(CO1)C1(Cl)C(Cl)=C(Cl)C2(Cl)C1(Cl)Cl (configuration not stated)
- AC50 [2]: inconclusive: 25 µM

Compound: CN(C)CCO
- AC50 [6]: inconclusive: 2.52 µM
- AC50 [2]: inconclusive: 0.0259 µM

Compound: O=S(=O)(c1ccc(Cl)cc1)c1ccc(Cl)cc1
- AC50 [6]: inconclusive: 25.2 µM

Compound: COc1ccc(-c2ccccc2)cc1NNC(=O)OC(C)C
- AC50 [9]: inconclusive: 8.62 µM

Compound: Oc1ccc(-c2ccccc2)cc1
- AC50 [11]: active: 11.9 µM
- AC50 [4]: inconclusive: 25 µM

Compound: CC(C)(c1ccccc1)c1ccc(O)c(C(C)(C)c2ccccc2)c1
- outcome [6]: inactive
- AC50 [2]: inconclusive: 25 µM
- AC50 [8]: inconclusive: 0.276 µM
- outcome [4]: inactive

Compound: COP(=O)(OC)O/C(=C\Cl)c1cc(Cl)c(Cl)cc1Cl
- AC50 [9]: inconclusive: 25 µM

Compound: O=S1(=O)OC(c2cc(Br)c(O)c(Br)c2)(c2cc(Br)c(O)c(Br)c2)c2ccccc21
- AC50 [6]: active: 5.92 µM

Compound: N#CC(CCc1ccc(Cl)cc1)(Cn1cncn1)c1ccccc1 (configuration not stated)
- AC50 [9]: inconclusive: 6.73 µM

Compound: C=C(C)C(=O)[O][Sn]([CH2]CCC)([CH2]CCC)[CH2]CCC
- outcome [6]: inactive
- AC50 [10]: active: 36.7 µM
- AC50 [8]: active: 8.9 µM
- AC50 [12]: active: 25 µM

Compound: CCOP(=S)(OCC)Oc1nc(Cl)c(Cl)cc1Cl
- outcome [6]: inactive

Compound: Clc1ccccc1-c1nnc(-c2ccccc2Cl)nn1
- AC50 [2]: inconclusive: 44.5 µM

Compound: [Cl][Sn]([c]1ccccc1)([c]1ccccc1)[c]1ccccc1
- AC50 [9]: active: 2.42 µM

Compound: CCC(=O)O[C@H]1CC[C@H]2[C@@H]3CCC4=CC(=O)CC[C@]4(C)[C@H]3CC[C@]12C
- AC50 [6]: inconclusive: 25 µM and inconclusive: 758 nM
- AC50 [9]: inconclusive: 0.05 µM
- outcome [2]: inactive

Compound: CCCCOC(=O)[C@@H](C)Oc1ccc(Oc2ccc(C#N)cc2F)cc1
- AC50 [11]: inconclusive: 25 µM

Compound: CCNS(=O)(=O)C(F)(F)C(F)(F)C(F)(F)C(F)(F)C(F)(F)C(F)(F)C(F)(F)C(F)(F)F
- outcome [6]: inactive
- AC50 [4]: inconclusive: 24.1 µM

Compound: O=C1c2ccccc2C(=O)C1C(=O)C(c1ccccc1)c1ccc(Cl)cc1 (configuration not stated)
- AC50 [2]: active: 16.2 µM

Compound: Nc1c(Cl)c(F)nc(OCC(=O)O)c1Cl
- outcome [2]: inactive

Compound: COC(=O)c1sccc1S(=O)(=O)NC(=O)Nc1nc(C)nc(OC)n1
- AC50 [6]: inconclusive: 25 µM
- outcome [2]: inactive

Compound: CCCCC(O)(Cn1cncn1)c1ccc(Cl)cc1Cl (configuration not stated)
- outcome [9]: inactive
- outcome [2]: inactive

Compound: CC1(C)CCC(=Cc2ccc(Cl)cc2)C1(O)Cn1cncn1 (configuration not stated)
- AC50 [9]: inconclusive: 6.41 µM

Compound: O=C(Oc1ccc(Br)cc1)N1CCN2CCC1CC2
- AC50 [6]: inconclusive: 6.21 µM
- AC50 [8]: active: 1.91 µM

Compound: O=C(O)CF
- AC50 [6]: inconclusive: 25 µM

Compound: Cl/C=C\C[N+]12CN3CN(CN(C3)C1)C2
- AC50 [9]: inconclusive: 22.8 µM

Compound: CC(=O)[O][Hg][c]1ccccc1
- AC50 [6]: active: 5.37 µM

Compound: C=CC(=O)OCCCCCC(C)C
- AC50 [10]: inconclusive: 1.36 µM
- AC50 [4]: inconclusive: 46.4 µM

Compound: COc1nc(C)nc(NC(=O)NS(=O)(=O)c2ccccc2CCC(F)(F)F)n1
- AC50 [10]: inconclusive: 25 µM
- AC50 [8]: inconclusive: 25 µM
- outcome [8]: inactive

Compound: C[N+]1(C)CCCCC1
- AC50 [12]: inconclusive: 0.0895 µM

Compound: CO/N=C(/C1=NOCCO1)c1ccccc1Oc1ncnc(Oc2ccccc2Cl)c1F
- AC50 [12]: inconclusive: 25 µM

Compound: COP(=S)(OC)Oc1nc(Cl)c(Cl)cc1Cl
- AC50 [3]: inconclusive: 25 µM

Compound: CCCCOCCOC(C)=O
- AC50 [3]: inconclusive: 0.073 µM
